For 1 molecule, binding results are on record in patent publication US20250282882A1.

No constants are given. Whether binding was seen depends on the method and setting. Some entries that bind do so weakly or less than the wild type. Where a sequence is shown, tags or fusion partners need not be part of it.

This test addresses T1, OX40-Fc (UniProt P43489).
T1 sequence (looked up): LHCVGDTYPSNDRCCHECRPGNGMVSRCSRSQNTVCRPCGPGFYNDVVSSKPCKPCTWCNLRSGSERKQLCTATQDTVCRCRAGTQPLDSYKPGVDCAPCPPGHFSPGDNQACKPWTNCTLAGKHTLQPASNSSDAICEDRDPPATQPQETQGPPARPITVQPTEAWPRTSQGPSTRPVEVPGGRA
The test can be described thus: plate binding assay, OX40-Fc coated.

B1: anti-OX40 antibody Drug Substance (DS) (antibody, human IgG1, kappa, N297A, V domains shown)
VH: QVQLVQSGAEVKKPGASVKVSCKASGYTFTSYWVDWVRQAPGQGLEWMGNIYPSDSETHYNQKFKDRVTMTRDTSTSTVYMELSSLRSEDTAVYYCARSYGYYGTWFAYWGQGTLVTVSS
VL: DIVMTQSPDSLAVSLGERATINCRASESVDSSGNSFMHWYQQKPGQPPKLLIYRASNLESGVPDRFSGSGSGTDFTLTISSLQAEDVAVYYCQQSNEDPWTFGGGTKLEIKR
Consider B1, for which the binding entry is listed as “binds”.
